Source: patent US12370181B2, “Regimens of estrogen receptor antagonists” (Olema Pharmaceuticals, Inc., priority 2019, dated 2025)
At least one compound was matched to its structure with a doubt left.

System: ligand-independent ER mutants
Test: AP activity in Ishikawa cells transiently transfected with ER variants
Type: cell-based, human
Details: in the absence of E2; 3 days; FIGS. 5A-5F, 8A-8D
Experimental: The present Example describes studies in which certain estrogen receptor constructs were transfected into Ishikawa cells, which are a human endometrial cancer cell line, endogenous alkaline phosphatase is assayed. 15,000 Ishikawa cells per well were plated into a 96-well plate in […] containing 5% stripped FBS. At the time of plating, cells in each well were transiently transfected with 75-100 ng of an estrogen receptor construct (or empty vector, pSG5) using Lipofectamine LTX (ThermoFisher Scientific). Approximately 4 hours later, cells were treated with indicated amount of anti-estrogen (in the absence of E2), or 500 pM E2 (FIG. 9), and media was diluted to 2.5% stripped FBS. Cells were incubated for 3 days, media removed, and plates frozen at −80° C. […] After 40-80 minutes at 40° C., absorbance was read at 405 nm.

SMILES: CC/C(=C(\c1ccc(O)cc1)c1ccc(OCCNC)cc1)c1ccccc1 [Endoxifen]
- Inhibition of activity of ligand-independent ER mutants (AP activity): none of Endoxifen, RAD-1901, ARN-810 (GDC-0810) or AZD-9496 can inhibit activity of the ligand-independent ER variants
